Literature values as cited in patent US20190351031A1, “METHODS OF SELECTING SUBJECTS FOR COMBINATION CANCER THERAPY WITH A POLYMER-CONJUGATED SOLUBLE PH20” (HALOZYME, INC., priority 2018, published 2019).
For some assays here: At least one compound was matched to its structure with a doubt left. Some results were stated once for a whole list of compounds, not compound by compound.

Key:
[1] = route: IV or PO; cited from earlier work
[2] = cited from earlier work

SMILES	Equivalent Potency [1] [mg]	water solubility [2]
C[C@@H]1C[C@H]2[C@@H]3CCC4=CC(=O)C=C[C@]4(C)[C@@]3(F)[C@@H](O)C[C@]2(C)[C@@]1(O)C(=O)CO [Dexamethasone]	0.5 to 0.75	
CC(=O)O[C@@]12CO[C@@H]1C[C@H](O)[C@@]1(C)C(=O)[C@H](O)C3=C(C)C(OC(=O)[C@H](O)[C@@H](NC(=O)OC(C)(C)C)c4ccccc4)C[C@@](O)([C@@H](OC(=O)c4ccccc4)[C@H]21)C3(C)C (some centres unmarked) [docetaxel]		less than 10 μg/mL
